# Data from PubChem BioAssay AID588499 (NMMLSC, 2011).
# The campaign covered roughly 360,000 compounds. About 610 (0.17%) were called active. Inconclusive results, whose numbers are uncertain, are shown with a selection of clear calls. No stated cut-off is given here; in the data, active means inhibition above about 30%; inconclusive means no clear call, values can overlap the other calls; inactive means below that.
# Tested on: Botulinum neurotoxin type A light chain protease (Clostridium botulinum A str. ATCC 3502)
# Experiment: blockers of BoNT/A LC substrate cleavage – biochemical, flow cytometry, MLPCN library, primary screen (AID 588499); further: plate controls were buffer without enzyme for full effect and enzyme alone for no effect
# Details: multiplex microsphere protease substrate cleavage, at 10 µM, hits give high values
row,SMILES,inhibition
1,COC(=O)c1ccccc1NC(=O)CN(C)Cc1ccccc1,inactive: 0.1%
2,COc1ccc(Br)cc1CN1CCCCCCC1,inconclusive: -1.5%
3,CCOc1ccc(C(=O)OCC(=O)Nc2nc(OC)cc(OC)n2)cc1OCC,inconclusive: -1.4%
4,Nc1ncncc1-c1ccc2ccccc2c1,inactive: -8.3%
5,Clc1ccc(Cl)c(Oc2ccc(Oc3nc(Cl)ccc3Cl)cc2)n1,inconclusive: -0.9%
6,CC(C)(C)C(=O)Nc1ccc(Oc2ccc3c(c2)C(=O)N(c2ccc(O)cc2)C3=O)cc1,inconclusive: 0%
7,O=C(NCCN1CCN(c2ccccc2)CC1)Nc1cccc(Cl)c1,inactive: -1.5%
8,COc1ccc(C(=O)OCC(=O)c2c[nH]c3ccccc23)cc1OC,active: 36.9%
9,CC(=O)N1CCC2(CC1)C(C#N)=C(N)Oc1n[nH]c(C(F)(F)F)c12,inconclusive: -0.3%
10,CCOC(=O)CSc1nc2sc3c(c2c(=O)n1-c1ccc(OCC)cc1)CCN(C)C3,active: 52.7%
11,COc1ccc(C(=O)NCc2ccc3[nH]c(C)cc3c2)cc1OC,active: 64.8%
12,Cc1ccccc1-c1cc2c(c3c1ccn3C)C1CCC2O1 (stereo not drawn),inactive: 0.8%
13,Cc1cccc(OCCCc2c(C)n[nH]c2C)c1,inconclusive: 3.4%
14,O=C(O)CCCCCN1C(=O)/C(=C\c2ccc(-c3ccc(Cl)cc3)o2)SC1=S,active: 42.7%
15,COc1ccc(-c2nnn(CC(=O)NCc3ccccc3)n2)cc1OC,inconclusive: -1.5%
16,Cc1oc(C(C)(C)C)cc1C(=O)N1CCN(c2ncccc2C(F)(F)F)CC1,inconclusive: -2.7%
17,Cc1nn(C)cc1CNC(=O)Nc1ccc(Br)cc1Cl,inactive: -0.5%
18,Cc1cc(=O)n2[nH]c(SCc3ccc(Cl)cc3)nc2n1,inconclusive: -12.8%
19,CC(=NCc1cccnc1)c1c(O)n(C2CCCCC2)c(=O)[nH]c1=O,inconclusive: 0.4%
20,COC(=O)NC(NS(=O)(=O)c1ccccc1)(C(=O)OC)C(F)(F)F (stereo not drawn),inconclusive: 4.9%
21,CCOc1ccc(-c2nnc(-c3ccc(OC)cc3)o2)cc1,inactive: 0.3%
22,Cc1ccc(-c2nnn(CC(=O)N(CC3CCCO3)C(C(=O)NC(C)(C)C)c3ccc(F)cc3)n2)o1 (stereo not drawn),inconclusive: -1.1%
23,C[C@H](O)[C@@H]1CN2CCc3c([nH]c4ccccc34)[C@@H]2C[C@@H]1N(C)C(=S)NCCc1ccccc1,active: 37.4%
24,Cc1c(Br)cc(C(=O)NC2CCCCC2)c(C)c1C,inconclusive: -1.2%

# Some of the entries so far, with tabs:
row	SMILES	inhibition
1	COC(=O)c1ccccc1NC(=O)CN(C)Cc1ccccc1	inactive: 0.1%
2	COc1ccc(Br)cc1CN1CCCCCCC1	inconclusive: -1.5%
3	CCOc1ccc(C(=O)OCC(=O)Nc2nc(OC)cc(OC)n2)cc1OCC	inconclusive: -1.4%
4	Nc1ncncc1-c1ccc2ccccc2c1	inactive: -8.3%
5	Clc1ccc(Cl)c(Oc2ccc(Oc3nc(Cl)ccc3Cl)cc2)n1	inconclusive: -0.9%
6	CC(C)(C)C(=O)Nc1ccc(Oc2ccc3c(c2)C(=O)N(c2ccc(O)cc2)C3=O)cc1	inconclusive: 0%
8	COc1ccc(C(=O)OCC(=O)c2c[nH]c3ccccc23)cc1OC	active: 36.9%
9	CC(=O)N1CCC2(CC1)C(C#N)=C(N)Oc1n[nH]c(C(F)(F)F)c12	inconclusive: -0.3%
10	CCOC(=O)CSc1nc2sc3c(c2c(=O)n1-c1ccc(OCC)cc1)CCN(C)C3	active: 52.7%
11	COc1ccc(C(=O)NCc2ccc3[nH]c(C)cc3c2)cc1OC	active: 64.8%
12	Cc1ccccc1-c1cc2c(c3c1ccn3C)C1CCC2O1 (stereo not drawn)	inactive: 0.8%
13	Cc1cccc(OCCCc2c(C)n[nH]c2C)c1	inconclusive: 3.4%
14	O=C(O)CCCCCN1C(=O)/C(=C\c2ccc(-c3ccc(Cl)cc3)o2)SC1=S	active: 42.7%
15	COc1ccc(-c2nnn(CC(=O)NCc3ccccc3)n2)cc1OC	inconclusive: -1.5%
16	Cc1oc(C(C)(C)C)cc1C(=O)N1CCN(c2ncccc2C(F)(F)F)CC1	inconclusive: -2.7%
17	Cc1nn(C)cc1CNC(=O)Nc1ccc(Br)cc1Cl	inactive: -0.5%
18	Cc1cc(=O)n2[nH]c(SCc3ccc(Cl)cc3)nc2n1	inconclusive: -12.8%
19	CC(=NCc1cccnc1)c1c(O)n(C2CCCCC2)c(=O)[nH]c1=O	inconclusive: 0.4%
20	COC(=O)NC(NS(=O)(=O)c1ccccc1)(C(=O)OC)C(F)(F)F (stereo not drawn)	inconclusive: 4.9%
21	CCOc1ccc(-c2nnc(-c3ccc(OC)cc3)o2)cc1	inactive: 0.3%
22	Cc1ccc(-c2nnn(CC(=O)N(CC3CCCO3)C(C(=O)NC(C)(C)C)c3ccc(F)cc3)n2)o1 (stereo not drawn)	inconclusive: -1.1%
23	C[C@H](O)[C@@H]1CN2CCc3c([nH]c4ccccc34)[C@@H]2C[C@@H]1N(C)C(=S)NCCc1ccccc1	active: 37.4%
24	Cc1c(Br)cc(C(=O)NC2CCCCC2)c(C)c1C	inconclusive: -1.2%

# Next part

row,SMILES,inhibition
1,COc1ccccc1C(=O)NCCn1ccc2ccccc21,active: 95.9%
2,COCCN(C(=O)CSc1nnc(-c2ccc(F)cc2)n1N)c1c(N)n(CC(C)C)c(=O)[nH]c1=O,inactive: 0.4%
3,Cc1onc(-c2ccccc2)c1-c1csc(COc2ccccc2)n1,inconclusive: -4.1%
4,Cc1ccc2c(c1)NCCO2,inconclusive: -2%
5,COC(=O)CCCCCCCC(=O)Nc1nnc(C(F)(F)F)s1,inactive: -0.1%
6,N#Cc1cccnc1N1CCN(C(c2ccnc3ccccc23)c2nnnn2-c2ccc3c(c2)OCCO3)CC1 (stereo not drawn),inactive: 0.4%
7,Cc1[nH]n(-c2ccccc2)c(=O)c1C(=O)c1ccccc1,inconclusive: -1.1%
8,COC(=O)c1ccc(COC(=O)C(CCSC)NC(=O)COc2ccccc2)cc1 (stereo not drawn),inactive: -1.2%
9,COc1ccc(CN(C)CC2CCCN(CCc3ccc(F)cc3)C2)cc1OC (stereo not drawn),inconclusive: 5.6%
10,O=C(Nc1ncc(Cc2ccccc2)s1)C1COc2ccccc2O1 (stereo not drawn),inconclusive: -10.5%
11,COc1ccc(-n2ncc3c(=O)n(CC(C)=O)cnc32)cc1,active: 61.3%
12,CCOC(=O)c1cnc(-n2nc(C)cc2C)nc1N(CC)CC,inconclusive: 7.3%
13,Cc1ccc(C(O)Cn2cc([N+](=O)[O-])nc2C)cc1 (stereo not drawn),inconclusive: -16.3%
14,CCCNC(=O)NC1CCCCCCC1,inactive: -0.1%
15,Cc1nn(CC(=O)NCCc2cccs2)c(=O)c2cc3ccccc3n12,active: 38.3%
16,O=C(Nc1c(-c2ccccc2)nc2ccccn12)c1ccco1,inconclusive: 1.3%
17,C[C@H](NC(=O)OC(C)(C)C)C(=O)N/N=C/C1=Cc2ccccc2OC1,inconclusive: 7.8%
18,Cc1cc(C)cc(OCC(=O)NNC(=O)CC(C)c2ccccc2)c1 (stereo not drawn),inactive: -0.2%
19,CC1=[N+](C)c2ccc3ccccc3c2C1(C)C,inconclusive: 64.4%
20,CCOC(=O)C1=C(C)NC(=O)NC1/C(C)=C/c1ccccc1 (stereo not drawn),inconclusive: 3.6%
21,Cn1c(SCc2nc3ccccc3[nH]2)nnc1-c1cccnc1,inconclusive: 1.7%
22,COc1ccc(NC(=O)CN2CCC(C(=O)c3ccc(F)cc3)CC2)c(OC)c1,inactive: -4%
23,CN1CCN(c2ccc(S(=O)(=O)N3CCCCC3)cn2)CC1,inactive: -0.4%
24,N#C/C(=C/c1ccc(C(=O)O)cc1)C(=O)NCc1ccccc1,inconclusive: -7.3%

row,SMILES,inhibition
1,Cn1ncc([N+](=O)[O-])c1C(=O)Nc1ccc(-c2ccccc2)cc1,inconclusive: -1.9%
2,CC(=O)c1ccc(N2CCC(c3cc(-c4ccc(Cl)cc4Cl)n[nH]3)CC2)c([N+](=O)[O-])c1,inconclusive: 13.5%
3,COc1cccc(C(O)c2nc(-c3cnn(C)c3)cs2)c1 (stereo not drawn),inactive: 0.2%
4,COc1c(C(=O)NNC(=O)c2ccccc2)csc1Br,inconclusive: -49.5%
5,Cc1cc(NC(=O)COC(=O)c2nccnc2N)n(-c2ccccc2)n1,inconclusive: -1.1%
6,CCCCC(CCC(=O)Nc1nccs1)C(=O)O (stereo not drawn),inconclusive: 2.2%
7,CC1CC(C)CN(C(=O)c2cccc3c2-c2ccccc2C3=O)C1 (stereo not drawn),inconclusive: 3.5%
8,C=CCn1c(N2CCCCCC2)nc2c1c(=O)[nH]c(=O)n2C,inconclusive: 0%
9,N=c1c(S(=O)(=O)c2ccc(Br)cc2)cc2c(=O)n3ccccc3nc2n1Cc1ccccc1,inactive: 4.3%
10,CCOC(=O)N1CCN(c2cc3nccnc3cc2F)CC1,inconclusive: -9%
11,CCOc1ccc(NC(=O)C(CC(=O)O)Cc2ccccc2)cc1 (stereo not drawn),inactive: -0.1%
12,COc1cc(NC(=O)CC2NCCNC2=O)cc(OC)c1 (stereo not drawn),inconclusive: 6%
13,CCOC(=O)Nc1ccc2c(c1)N(C(=O)CCN1CCN(CCO)CC1)c1ccccc1S2,inactive: -0.5%
14,C=CCn1c(SCc2nnc(-c3ccccc3)o2)nnc1C(O)c1ccccc1 (stereo not drawn),inconclusive: 2.7%
15,CCOC(=O)C1CCCN(C(=O)c2ccc(S(=O)(=O)N3CCOCC3)cc2)C1 (stereo not drawn),inactive: -0.3%
16,CCn1c(SCC(=O)N/N=C/c2ccc(C)o2)nnc1-c1ccccc1,inconclusive: -0.2%
17,O=C(O)c1cccc(NS(=O)(=O)c2ccc3c(c2)OCCCO3)c1,inactive: 0%
18,COC(=O)NNC(=S)Nc1cc(OC)ccc1OC,inconclusive: 0.9%
19,O=C(N/N=C\c1cc(Br)c(Br)o1)C1COc2ccccc2O1 (stereo not drawn),inconclusive: -29.8%
20,O=C(CN1CCN(Cc2ccccc2)CC1)N/N=C/c1ccco1,inconclusive: -1.9%
21,COCCCNC(=O)c1c(NC(=O)c2ccccc2)n(Cc2ccccc2)c2nc3ccccc3nc12,inconclusive: 49.5%
22,CC(C)(C)c1ccc(C(=O)NNC(=O)c2cccc(Br)c2)cc1,inconclusive: 30%
23,COc1ccc(Cl)cc1NC(=O)N1CCN(C2CCCCC2)CC1,inconclusive: -0.5%
24,COc1ccc(CC(=O)OCC(=O)NC2CCCCC2)cc1OC,inactive: -0.3%

row,SMILES,inhibition
1,CCCCNc1nnc(SCC(=O)c2c[nH]c3ccccc23)s1,active: 54.2%
2,CCN(CC)S(=O)(=O)c1cc(C(=O)Nc2ccccn2)ccc1C,inconclusive: -3%
3,Cc1cc(C)c2c(c1)/C(=C/C(=O)c1ccc(Br)s1)C(=O)N2,inconclusive: -9%
4,O=C(Nc1ccc2nc(-c3cccs3)c(-c3cccs3)nc2c1)NC1CC1,active: 83.4%
5,CC(OC(=O)C1CC(=O)N(Cc2ccccc2)C1)C(=O)Nc1ccc(F)cc1Cl (stereo not drawn),inconclusive: 1.2%
6,Cc1ccc(-c2nnc(NC(=O)C3=COCCO3)o2)c(C)c1,inconclusive: -5.4%
7,COc1ccc(/C=N/NC(=O)c2cccnc2)cc1CN1CCOCC1,inconclusive: 11.5%
8,CCOC(=O)C1C(=O)NC(SCC(=O)Nc2nccs2)=C(C#N)C1c1ccccc1OCC (stereo not drawn),inconclusive: 0%
9,COc1ccc(C2=Nn3c(nnc3-c3ccccn3)SC2)cc1OC,inconclusive: -1.5%
10,Cc1ccc(NC(=O)CNC(=O)c2ccc(C)o2)cc1,inconclusive: -1.8%
11,CN(C)c1ccc(-c2ccnc3c2CC(C)(C(=O)Nc2ccc(Cl)c(C(F)(F)F)c2)O3)cc1 (stereo not drawn),inactive: -0.3%
12,COc1cnc(-c2ccccn2)nc1Oc1ccc(Cl)c2ccccc12,inactive: -3.9%
13,O=C(CSc1ccccn1)N1CCN(c2ccc(Cl)cc2)CC1,inconclusive: 1.2%
14,CC(=O)OCCNc1cc(N2CCN(C)CC2)c2noc3c2c1C(=O)c1ccccc1-3,inactive: 1%
15,CCOC(=O)/C(=C/C=C1\Sc2cc(C)c(C)cc2N1CC)C(C)=O,active: 40.4%
16,Cc1cc(C)n(CCCNC(=O)c2ccc(S(=O)(=O)NCc3ccco3)cc2)n1,inconclusive: 1.6%
17,Cc1cccc(C)c1OC(=O)CN1C(=O)c2ccccc2C1=O,inconclusive: 4.9%
18,Cc1ccc(C(=O)N2CCN(C(=O)C3CCCO3)CC2)cc1 (stereo not drawn),inactive: -0.5%
19,C=C(C)C(=O)Nc1cccnc1Oc1ccc(F)cc1F,inactive: -1%
20,CCOc1ccc(C(c2c(C)[nH][nH]c2=O)c2c(C)[nH][nH]c2=O)cc1OC,inactive: 0%
21,O=C(C1COc2ccccc2O1)N1CCN(c2ccccn2)CC1 (stereo not drawn),inconclusive: 15.3%
